Values from PubChem BioAssay AID1224830 (NIAID, 2016).
Test: 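Genes whose knock-down alters the TNF-alpha reporter response to LPS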 (primary screen). System: human THP-1 monocytic leukaemia cells, TNF dual-luciferase reporter clone, PMA-differentiated to macrophage-like cells. Reagents: siRNA pool against human genes, 50 nM. Timing: LPS for 4 h, given about 3 days after siRNA transfection. Challenge: bacterial LPS (TLR4 ligand), 10 ng/ml. Detection: 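TNF firefly reporter luminescence divided by renilla, normalised to the plate median, then turned into a robust z-score for each replicate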. Reading the numbers: TNF reporter robust z-score: higher = stronger TNF reporter response to LPS. Call rule: 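a well is active when its z-score exceeds 2.8 or falls below -1.5; control wells carry no call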.
The deposit covers about 18,000 reagents; this is an unselected part. Over the whole deposit, about 2,900 (16%) were called active. 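Calls are made per well; low scores hint the gene aids the LPS response, high scores that it dampens it.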 A number with no mark means an inactive call. Repeated entries: four replicate wells of each siRNA pool. Reagent sequences are not shown.

target | PubChem SID | TNF reporter robust z-score
KIF21B | SID315454952 | -1.14
KIF21B | SID315454952 | -1.17
KIF21B | SID315454952 | -1.38
KIF21B | SID315454952 | -0.77
LVRN | SID315463147 | 0.72
LVRN | SID315463147 | 0.12
LVRN | SID315463147 | 0.6
LVRN | SID315463147 | 0.05
LVRN | SID315463147 | -0.75
LVRN | SID315463147 | -0.71
LVRN | SID315463147 | -0.37
LVRN | SID315463147 | -0.13
ANXA5 | SID315447325 | 2
ANXA5 | SID315447325 | 0.05
ANXA5 | SID315447325 | -0.04
ANXA5 | SID315447325 | 2.04
SLC31A1 | SID315448042 | -0.21
SLC31A1 | SID315448042 | -0.62
SLC31A1 | SID315448042 | -1.01
SLC31A1 | SID315448042 | -0.85
RRP1 | SID315452664 | -1.9 (active)
RRP1 | SID315452664 | -0.44
RRP1 | SID315452664 | -1.6 (active)
RRP1 | SID315452664 | -1.19
PLEKHF2 | SID315459367 | -0.96
PLEKHF2 | SID315459367 | 0.14
PLEKHF2 | SID315459367 | -1.16
PLEKHF2 | SID315459367 | -1.19
CLIC6 | SID315456965 | 1.33
CLIC6 | SID315456965 | -0.29
CLIC6 | SID315456965 | -1.39
CLIC6 | SID315456965 | 0.73
ASPG | SID315464322 | -0.11
ASPG | SID315464322 | 0.72
ASPG | SID315464322 | -1.1
ASPG | SID315464322 | 1.85
CLSTN3 | SID315453531 | 1.18
CLSTN3 | SID315453531 | 1.16
CLSTN3 | SID315453531 | 0.05
CLSTN3 | SID315453531 | -0.95
IER5L | SID315464575 | 0.32
IER5L | SID315464575 | 0.35
IER5L | SID315464575 | 0
IER5L | SID315464575 | 0.75
IPO8 | SID315454162 | -0.22
IPO8 | SID315454162 | 0.01
IPO8 | SID315454162 | 0.84
IPO8 | SID315454162 | -0.54
SH3KBP1 | SID315456281 | -0.19
SH3KBP1 | SID315456281 | 0.51
SH3KBP1 | SID315456281 | -1.26
SH3KBP1 | SID315456281 | -0.91
DEFB123 | SID315463384 | -0.64
DEFB123 | SID315463384 | -0.15
DEFB123 | SID315463384 | -1.28
DEFB123 | SID315463384 | -0.21
UPP1 | SID315452079 | 1.07
UPP1 | SID315452079 | 2.14
UPP1 | SID315452079 | 0.93
UPP1 | SID315452079 | 2.27
STK32A | SID315463102 | 0.48
STK32A | SID315463102 | 1.05
STK32A | SID315463102 | 0.34
STK32A | SID315463102 | 0.97
GTPBP1 | SID315453388 | 0.79
GTPBP1 | SID315453388 | 2.95 (active)
GTPBP1 | SID315453388 | 0.11
GTPBP1 | SID315453388 | -0.07
BIN2 | SID315456699 | 0.72
BIN2 | SID315456699 | 0.86
BIN2 | SID315456699 | -0.83
BIN2 | SID315456699 | -0.49
IGFN1 | SID315460890 | 0.38
IGFN1 | SID315460890 | 0.98
IGFN1 | SID315460890 | 0.82
IGFN1 | SID315460890 | 1.42
JAML | SID315461496 | -1.06
JAML | SID315461496 | -0.56
JAML | SID315461496 | -0.2
JAML | SID315461496 | 0.41
DNMT3B | SID315448351 | -0.45
DNMT3B | SID315448351 | -0.31
DNMT3B | SID315448351 | -0.33
DNMT3B | SID315448351 | 0.26
PHF21A | SID315456642 | -1.11
PHF21A | SID315456642 | -0.31
PHF21A | SID315456642 | -1.32
PHF21A | SID315456642 | -1.53 (active)
AOPEP | SID315460565 | 0.27
AOPEP | SID315460565 | 2.31
AOPEP | SID315460565 | 0.95
AOPEP | SID315460565 | 1.34
GABRG1 | SID315448807 | -0.52
GABRG1 | SID315448807 | 0.49
GABRG1 | SID315448807 | -0.11
GABRG1 | SID315448807 | -0.16
BAZ2A | SID315454664 | -0.19
BAZ2A | SID315454664 | -0.32
BAZ2A | SID315454664 | -0.41
BAZ2A | SID315454664 | -0.28
PCNX4 | SID315458931 | 0.46
PCNX4 | SID315458931 | 0.22
PCNX4 | SID315458931 | 0.05
PCNX4 | SID315458931 | 0.15
PSCA | SID315452369 | 1.31
PSCA | SID315452369 | 0.41
PSCA | SID315452369 | -0.05
PSCA | SID315452369 | -0.17
TMOD3 | SID315456168 | -0.19
TMOD3 | SID315456168 | 0.61
TMOD3 | SID315456168 | 0.45
TMOD3 | SID315456168 | 0.21

15 entries from above, arranged by “TNF reporter robust z-score”, low to high:
target | PubChem SID | TNF reporter robust z-score
BAZ2A | SID315454664 | -0.41
BAZ2A | SID315454664 | -0.32
BAZ2A | SID315454664 | -0.28
BAZ2A | SID315454664 | -0.19
PSCA | SID315452369 | -0.17
GABRG1 | SID315448807 | -0.16
GABRG1 | SID315448807 | -0.11
PSCA | SID315452369 | -0.05
PCNX4 | SID315458931 | 0.05
PCNX4 | SID315458931 | 0.15
PCNX4 | SID315458931 | 0.22
PSCA | SID315452369 | 0.41
PCNX4 | SID315458931 | 0.46
GABRG1 | SID315448807 | 0.49
PSCA | SID315452369 | 1.31
